doi:10.1101/2023.07.25.550453 (bioRxiv, 2023)
Like-named read-outs stand apart in the source and are kept apart here. These are yes or no findings as the source states them, for the method shown.

T1: nuclear cap-binding complex (CBC: CBP80ΔNLS + CBP20), human (human) (UniProt Q09161+P52298)
T1 sequence 1: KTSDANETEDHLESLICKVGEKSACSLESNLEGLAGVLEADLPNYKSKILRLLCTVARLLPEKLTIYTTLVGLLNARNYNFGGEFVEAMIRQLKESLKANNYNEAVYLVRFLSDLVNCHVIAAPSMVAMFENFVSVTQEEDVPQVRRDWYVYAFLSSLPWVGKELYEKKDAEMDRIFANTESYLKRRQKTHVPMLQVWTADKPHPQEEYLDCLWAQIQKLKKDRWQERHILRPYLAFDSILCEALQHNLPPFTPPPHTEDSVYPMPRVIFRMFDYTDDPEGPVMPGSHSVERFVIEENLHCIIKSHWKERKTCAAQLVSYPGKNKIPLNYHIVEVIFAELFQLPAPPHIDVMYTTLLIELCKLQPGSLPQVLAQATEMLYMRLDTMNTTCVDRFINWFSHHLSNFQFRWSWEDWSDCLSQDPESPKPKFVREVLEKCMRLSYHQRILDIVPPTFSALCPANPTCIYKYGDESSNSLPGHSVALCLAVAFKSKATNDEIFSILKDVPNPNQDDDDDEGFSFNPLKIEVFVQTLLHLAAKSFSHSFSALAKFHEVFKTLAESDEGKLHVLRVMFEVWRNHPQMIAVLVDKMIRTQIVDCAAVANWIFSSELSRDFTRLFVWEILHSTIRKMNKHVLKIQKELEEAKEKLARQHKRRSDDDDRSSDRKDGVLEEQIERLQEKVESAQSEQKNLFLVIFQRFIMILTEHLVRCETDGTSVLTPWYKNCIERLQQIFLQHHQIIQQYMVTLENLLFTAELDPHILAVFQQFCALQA
T1 sequence 2: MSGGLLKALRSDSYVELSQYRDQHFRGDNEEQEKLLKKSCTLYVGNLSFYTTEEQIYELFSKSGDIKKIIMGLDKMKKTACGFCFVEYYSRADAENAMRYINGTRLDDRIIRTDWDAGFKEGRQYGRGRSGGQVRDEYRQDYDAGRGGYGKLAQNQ


Columns and labels:
[1] = target: T1, nuclear cap-binding complex (CBC: CBP80ΔNLS + CBP20), human (human); assay: SEC
[2] = target: T1, nuclear cap-binding complex (CBC: CBP80ΔNLS + CBP20), human (human); assay: SEC; remark: listed apart in the source

Row | binding [1] | binding [2] | Molecule
1 | no binding | – | His-MBP-PHAX^103-196 (W118E) (from UniProt Q9H814 103-196) (domain or fragment)
2 | – | no binding | NCBP3^560-620 (W581E) (domain or fragment, UniProt Q53F19 560-620) TKKVDHRAPGAEEDDSELQRAEGALIKEKEQSRQKKSRLDNLPSLQIEVSRESSSGSEAES
